Source: US20150018296A1, “THERAPEUTIC METHODS AND COMPOSITIONS UTILIZING CYCLOHEXENONE COMPOUNDS” (Golden Biotechnology Corporation, priority 2013, published 2015)
At least one structure is not confirmed: it was looked up by name or label, or the drawing left a doubt.

Protein sequences, listed by entry. Tags and fused reporters are not part of them.
UniProt Q02293, whole entry: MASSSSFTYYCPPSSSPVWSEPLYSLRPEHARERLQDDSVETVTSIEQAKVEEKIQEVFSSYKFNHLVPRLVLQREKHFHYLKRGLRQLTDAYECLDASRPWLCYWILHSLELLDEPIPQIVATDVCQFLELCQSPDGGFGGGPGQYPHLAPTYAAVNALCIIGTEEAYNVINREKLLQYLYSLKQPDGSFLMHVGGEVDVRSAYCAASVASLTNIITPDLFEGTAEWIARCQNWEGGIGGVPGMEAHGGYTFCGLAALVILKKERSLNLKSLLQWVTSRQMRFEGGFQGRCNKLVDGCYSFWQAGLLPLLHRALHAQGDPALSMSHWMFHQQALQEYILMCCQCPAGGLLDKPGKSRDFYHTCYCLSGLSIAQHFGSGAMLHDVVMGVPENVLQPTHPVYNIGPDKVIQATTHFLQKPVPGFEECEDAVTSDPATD

Key:
FTase = FTase (Rattus norvegicus, UniProt Q02293+Q04631); test: SDS-PAGE-based prenyltransferase assay (in vitro); format: biochemical; conditions: H-Ras-GST, NBD-FPP 25 μM, 3 h at 37° C.
ERK1/2 phosphorylation = test: Immunoblot for phosphorylated and total ERK1/2 in cancer cell lines; format: cell-based, human; conditions: serum-starved, 1 h
Ras processing = test: Immunoblot of unprocessed and processed Ras in cancer cell lines; format: cell-based, human; conditions: 24 h
Description: FIG. 2A-C show illustrative effective results of the exemplary Compound 1 inhibiting Ras processing in cancer cell lines. (2A) A549 and H838 cells were treated with different concentrations of Compound 1 and grown under serum (10% FBS) or serum-free (no FBS) conditions for 24 h. (2B) H838, (2C) HepG2 and K562 cells were treated with different concentrations of Compound 1 and grown under serum-free (no FBS) conditions for 24 h. Whole cell lysates were then immunoblotted with a Ras antibody. A duplicate membrane was probed with a GAPDH antibody. The relative expression level of unprocessed to processed Ras was quantified by densitometry. The experiments were conducted three times. Bars represent the mean±SEM. *P<0.05, ** P<0.01
FIG. 3A-C show illustrative effective results of Compound 1 inhibiting the prenylation activity of farnesyltransferase in vitro and competes with FPP within cells. (3A) Chemical structure of Compound 1 and FPP. (3B) H838 cells stimulated with either Compound 1 or FPP as indicated for 24 h. Whole cell lysates were then immunoblotted with a Ras antibody. A duplicate membrane was probed with a GAPDH antibody. The relative expression level of unprocessed to processed Ras was quantified by densitometry. The experiments were conducted three times. (3C) SDS-PAGE of fluorescently labeled H-Ras-GST after prenylation with NBD-FPP mediated by FTase.
Human hepatoma (HepG2, Hep3B), human lung adenocarcinoma (A549, H838), and human myelogenous leukemia (K562) cell lines were obtained from American Type Culture Collection (Rockville, Md., USA). […]
Sixty micrograms of total protein lysates measured using a Bradford assay (Sigma-Aldrich, St. Louis, Mo., USA) were resolved on 12.5% SDS-polyacrylamide gels. […] Secondary antibodies were conjugated to horseradish peroxidase, which was detected using a 3,3′-diaminobenzidine substrate kit (Vector Laboratories, Burlingame, Calif.). The immunoreactive bands were quantified by densitometry using Image-Pro Plus software (Media Cybernetics, Silver Spring, Md.). […]

H838 cells = test: Autophagic activity: Beclin-1 and LC3B immunoblot, LC3B confocal microscopy; format: cell-based, human
PI3K signaling = conditions: A549 cells; Kumar V B, et al., Mutat Res 2011; cited from earlier work
HCT116 cells = test: Combination treatment with an inhibitor of the Ras-PI3K-Akt-mTOR pathway, growth of cancer cells; format: cell-based
[1] = combination of LY294002 and Compound 1
[2] = combination of tipifarnib and Compound 1

With `COC1=C(OC)C(O)C(C/C=C(\C)CC/C=C(\C)CCC=C(C)C)C(C)C1=O` (stereo not drawn) [Compound 1, 4-hydroxy-2,3-dimethoxy-6-methyl-5-(3,7,11-trimethyldodeca-2,6,10-trienyl)cyclohex-2-enone] the “inhibition of FTase activity” value (FTase) was “dose-dependent inhibition of FTase activity”, the ERK1/2 phosphorylation (ERK1/2 phosphorylation; H838 cells) was “increase in ERK1/2 phosphorylation” and the “expression of total ERK1/2” value (ERK1/2 phosphorylation; H838 cells) was “increased expression of total ERK1/2”. For the same compound, the “phosphorylation of ERK1/2” value (ERK1/2 phosphorylation; HepG2 and A549 cells) was “induced phosphorylation of ERK1/2”, the “total ERK1/2 expression level” value (ERK1/2 phosphorylation; HepG2 and A549 cells) was “unaffected” and the “unprocessed Ras” value (Ras processing; A549 and H838 cells, serum and serum-free conditions) was “accumulation of unprocessed Ras”. The “unprocessed Ras” value (Ras processing; H838, HepG2 and K562 cells, serum-free) was “dose-dependent accumulation of unprocessed Ras”, the “Ras processing, substance alone” value (Ras processing; H838 cells) was “significantly enhanced accumulation of unprocessed Ras” and the LC3B-II-associated autophagosomes (H838 cells; H838, confocal microscopy, 24 h) was “observed”. The “conversion of LC3B” value (H838 cells; H838, serum-free, 24 h) was “induced autophagic conversion of LC3B-1 to LC3B-II”, the Beclin-1 expression (H838 cells; H838, serum-free, 24 h and 48 h) was “increased” and the PI3K signaling (PI3K signaling) was “inhibit PI3K signaling”. The “IC50 value in combination as compared to either drug alone” value (HCT116 cells; [1]) was “decreases”, the “IC50 value in combination as compared to either drug alone” value (HCT116 cells; combination of Rapamycin and Compound 1) was “decreases” and the “IC50 value in combination as compared to either drug alone” value (HCT116 cells; combination of Triciribine and Compound 1) was “decreases”. For the same compound, the “IC50 value in combination as compared to either drug alone” value (HCT116 cells; [2]) was “decreases”.

With `Cn1cncc1[C@@](N)(c1ccc(Cl)cc1)c1ccc2c(c1)c(-c1cccc(Cl)c1)cc(=O)n2C` [tipifarnib, reference compound] the “IC50 value in combination as compared to either drug alone” value (HCT116 cells; [2]) was “decreases”.

In the case of `O=c1cc(N2CCOCC2)oc2c(-c3ccccc3)cccc12` [LY294002, reference compound], the “IC50 value in combination as compared to either drug alone” value (HCT116 cells; [1]) was “decreases”.
